# Over roughly 33,000 sequences, “E-score (-0.5 to 0.5)” has its median near -8e-05; the highest 2% begin near 0.23. Some of the results follow.
# Target: T1, Nrg2 (UniProt P38082)
# T1 sequence: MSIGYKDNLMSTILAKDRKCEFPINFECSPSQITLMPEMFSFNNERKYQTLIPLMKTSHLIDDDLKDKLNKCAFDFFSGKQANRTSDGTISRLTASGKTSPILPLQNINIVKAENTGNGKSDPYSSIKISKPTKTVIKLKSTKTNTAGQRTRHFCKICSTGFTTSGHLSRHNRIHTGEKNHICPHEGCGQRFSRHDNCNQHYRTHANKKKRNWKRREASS
# Experiment: PBM E-score (8-mer binding enrichment) (E-score (-0.5 to 0.5)); higher = stronger / more preferred TF binding
# Settings: protein concentration: 100 nM; construct: GST-full length
# Experimental: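 Universal 'all 10-mer' protein binding microarrays (Agilent AMADID 015681) probed with GST-tagged S. cerevisiae TFs (full-length or DBD) made by in vitro transcription/translation (PURExpress), about 100-200 nM. Bound TF was detected with fluorescent anti-GST. Each ungapped 8-mer (which stands for itself and its reverse complement) is scored by the PBM enrichment score (E-score), a modified Wilcoxon-Mann-Whitney statistic from -0.5 to +0.5, computed with the Universal PBM Analysis Suite. Scale: above 0.35 generally sequence-specific binding.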
row,Sequence,PBM E-score
1,ACCCTTGA,0.242
2,ACAGTGTA,0.0441
3,ACAATGCG,0.191
4,AGCTAGTC,-0.0122
5,CATCTCGC,0.0179
6,ACCTGCAG,-0.0488
7,AACTGTCA,-0.0456
8,AGTTGCGA,0.218
9,CCCTCGAG,0.143
10,AAGACGTC,-0.0365
11,CCTATGAG,-0.0467
12,AAAAACGC,0.0582
13,AGAGCGAC,-0.0893
14,AGATGACG,0.0118
15,AACACTCT,-0.06
16,CCCTGCGG,0.0459
17,AAAAGTGG,0.202
18,ACAATGTC,0.107
19,AGTACTAT,0.00892
20,CCAAATGC,0.133
21,ACTATGCC,0.125
22,ATTACTCA,0.102
23,TCGGGTCA,0.102
24,CGCTATAA,-0.0237
25,AAGCGTGT,-0.303

row,Sequence,PBM E-score
1,AGTTGTTA,0.101
2,ATCCGCCG,0.188
3,AGCCAGTG,-0.21
4,AGTTAACC,0.15
5,AGGAGCAT,-0.0904
6,AATACATT,0.114
7,CGAGACGC,0.0527
8,CGCATAGA,0.168
9,CACTTGAA,0.0506
10,TCTTAACA,0.0176
11,AAACGCTT,-0.125
12,ATAGAGAA,0.0211
13,CCCGATGA,0.142
14,TATGGCGA,-0.0815
15,ACAGGCAC,-0.126
16,CAGTCAAA,-0.229
17,ACTCTGAA,0.0654
18,AATACCGA,-0.16
19,CTAATCGA,0.131
20,CGTGACTA,0.00642
21,CAATGCAG,0.00706
22,CTTACAGA,0.0133
23,AGCGCAGC,-0.153
24,AGATAAGA,0.116
25,AGATACCG,-0.107

# Quoted from the results shown for reference:
row,Sequence,PBM E-score
9,CACTTGAA,0.0506
10,TCTTAACA,0.0176
11,AAACGCTT,-0.125

# Carrying on:

row,Sequence,PBM E-score
1,ACGTAGGC,-0.226
2,GGCGTTAC,-0.144
3,ACCTTAGG,-0.191
4,CCGTCACA,-0.135
5,TACTTTCA,0.0426
6,ACGAAGGG,-0.0423
7,CTTACATA,-0.0597
8,CAATCGTC,-0.0499
9,AACCTATC,0.0325
10,AAAGCTCT,-0.282
11,AGCGGAGG,-0.24
12,CTTGGCTC,-0.055
13,AGCTTGAC,-0.141
14,CCCCCTTA,-0.156
15,GAATCACA,0.103
16,AGTGACAC,-0.00081
17,AATCTACA,0.155
18,CCCTACTC,0.0197
19,CGCTTAAC,-0.0286
20,CAGACGAG,0.0528
21,CCGCGCAG,0.0598
22,CCGTATCG,-0.115
23,GGGCCACA,-0.0333
24,ATTCGCGC,0.159
25,CCGTCGTC,-0.0166

row,Sequence,PBM E-score
1,ATTGAATG,0.0439
2,GACCGATC,-0.0307
3,GTGTTGAA,-0.0238
4,AAGGTCCA,0.073
5,GGGCCCCA,0.00797
6,CATAGGTC,-0.0159
7,AGAAGCCC,-0.0779
8,CGCAGACG,0.0706
9,AGTCCTCA,0.015
10,ATCCTGCA,0.117
11,CAAGTACG,-0.275
12,TTGGTAAA,-0.0882
13,GAATCGCC,-0.0857
14,CCCGTGAA,0.0306
15,AGGCTTCC,0.0147
16,AGGAGGCA,-0.179
17,CGGATGTA,-0.0978
18,TGATCTAA,-0.0382
19,GTAGAAAA,-0.0337
20,AGCCGATA,-0.115
21,GGTCTGAA,0.165
22,CTTGACTC,-0.268
23,ATGAGGCC,-0.0241
24,ACTTACGG,-0.0136
25,AAATGGCC,-0.173

row,Sequence,PBM E-score
1,ACAGACGG,-0.155
2,GCTGTGGA,0.117
3,TGCGTTAA,-0.0371
4,CAAAGGGA,0.066
5,AGCACGTC,-0.0238
6,CCGGGCCC,0.0831
7,AGTACCAA,0.117
8,ACGGCGGA,-0.0346
9,CACGGTTA,0.0385
10,CAAATTCC,0.121
11,CCATAGAA,0.0258
12,GGAATCGA,0.0921
13,AACATCAC,0.0311
14,TTACAGAA,-0.0591
15,GTATCACA,0.146
16,GAACAAAC,0.323
17,AGTCGTGG,-0.0598
18,ATACACAC,0.0606
19,ACAGTATG,0.0729
20,CACTTCCA,-0.0401
21,AGCGCCTC,-0.231
22,AGTCCACA,-0.155
23,ACCCCACT,0.131
24,CATATAAC,0.172
25,CGGGTTCA,0.0522

row,Sequence,PBM E-score
1,CAAGCCGA,0.203
2,GGTCTTCA,-0.244
3,AAATGTAT,0.185
4,AAGCACAG,-0.00064
5,CAGATGTA,0.00849
6,AACATTAT,0.122
7,GGGGATAA,0.0856
8,AACAGTCG,-0.0342
9,AAAGCAAC,0.162
10,TCTAGCCA,-0.106
11,ACTCCGGG,-0.0705
12,CCCTTCGC,0.00935
13,GCCAAGTA,-0.23
14,CGCTACTA,0.234
15,ATTCGTGA,0.163
16,GCACGAAA,0.153
17,GCGCTGTA,0.0181
18,AACACCCA,-0.173
19,ACATTGCG,-0.0399
20,ATCATATC,0.169
21,GACAATGA,-0.149
22,GCAGCCGA,0.0266
23,GAGTGCCA,-0.0639
24,ATAGAGAT,0.0546
25,TATAATCA,0.202

# Shown with tabs: part of the list above.
row	Sequence	PBM E-score
2	GGTCTTCA	-0.244
4	AAGCACAG	-0.00064
20	ATCATATC	0.169

# Retrieved one by one from the entries so far, 3 records:
row,Sequence,PBM E-score
8,AACAGTCG,-0.0342
18,AACACCCA,-0.173
11,ACTCCGGG,-0.0705

# The listing continues:

row,Sequence,PBM E-score
1,CAGGACAC,-0.0795
2,ATCAACGA,0.0856
3,AAATATAT,0.257
4,AACAACCG,0.021
5,CGCAAAAA,0.141
6,CAAGAATC,0.203
7,TGCTGACA,0.0555
8,CCGTAACG,-0.334
9,TCAGGAGA,0.0861
10,AACGTGTC,-0.199
11,GGAGAGCC,-0.257
12,ACGGTATA,0.0462
13,GAGGTAAA,0.0865
14,GAGGGAAC,0.018
15,GCTTACAC,-0.00254
16,ATCCTGCC,-0.125
17,ACGTTGGG,-0.0242
18,CCGCTCAC,0.0692
19,GGAACAAC,0.133
20,CCGTCTGA,-0.111
21,CCGTTTGA,-0.0238
22,ACTTAAGA,0.135

# From the supplement of paper PMC3334620
